The values below come from PMC4811448.

The chains behind the UniProt entries cited, without tags or fusion partners. Where a name states a change or a piece, a line headed by the entry shows the natural chain unless it says otherwise.
UniProt Q04771: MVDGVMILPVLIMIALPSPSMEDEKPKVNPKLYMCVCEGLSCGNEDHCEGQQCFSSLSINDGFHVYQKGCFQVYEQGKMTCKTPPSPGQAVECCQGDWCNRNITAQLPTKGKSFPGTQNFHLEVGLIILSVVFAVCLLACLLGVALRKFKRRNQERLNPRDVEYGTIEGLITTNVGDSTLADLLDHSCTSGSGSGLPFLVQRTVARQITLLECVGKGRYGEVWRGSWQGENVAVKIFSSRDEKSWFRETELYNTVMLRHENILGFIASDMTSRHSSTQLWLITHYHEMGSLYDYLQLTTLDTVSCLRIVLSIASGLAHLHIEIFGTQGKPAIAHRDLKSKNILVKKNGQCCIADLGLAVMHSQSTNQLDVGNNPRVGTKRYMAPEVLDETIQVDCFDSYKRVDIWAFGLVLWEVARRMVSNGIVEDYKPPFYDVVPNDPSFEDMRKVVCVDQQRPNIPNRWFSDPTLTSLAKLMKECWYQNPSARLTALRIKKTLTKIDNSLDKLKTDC

For this assay, the target named is kinase-dead human ACVR1/ALK2, HA-tagged (adenovirally expressed) (human) (UniProt Q04771). Put plainly: proximity ligation; C2C12 cells transduced with adenoviruses, fixed and permeabilised; rabbit anti-HA and mouse anti-LKB1 antibodies, Duolink reagents.

Results are given in words; binding and its absence hold for the method and conditions named. Binding seen in cells or lysates may run through a third protein. A result given as binding can be weak or reduced; the word gives no strength.

B1: endogenous mouse Lkb1 (C2C12) (enzyme, UniProt Q9WTK7 1-436)
chain: MDVADPEPLGLFSEGELMSVGMDTFIHRIDSTEVIYQPRRKRAKLIGKYLMGDLLGEGSYGKVKEVLDSETLCRRAVKILKKKKLRRIPNGEANVKKEIQLLRRLRHRNVIQLVDVLYNEEKQKMYMVMEYCVCGMQEMLDSVPEKRFPVCQAHGYFRQLIDGLEYLHSQGIVHKDIKPGNLLLTTNGTLKISDLGVAEALHPFAVDDTCRTSQGSPAFQPPEIANGLDTFSGFKVDIWSAGVTLYNITTGLYPFEGDNIYKLFENIGRGDFTIPCDCGPPLSDLLRGMLEYEPAKRFSIRQIRQHSWFRKKHPLAEALVPIPPSPDTKDRWRSMTVVPYLEDLHGRAEEEEEEDLFDIEDGIIYTQDFTVPGQVLEEEVGQNGQSHSLPKAVCVNGTEPQLSSKVKPEGRPGTANPARKVCSSNKIRRLSACKQQ
For the molecule B1, the binding entry is listed as “binds”.
